PubChem BioAssay AID1224830 – NIAID, 2016

Test: 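Host factors that control LPS-induced TNF expression in human macrophages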 (primary screen)
System: human THP-1 monocytic leukaemia cells, TNF dual-luciferase reporter clone, PMA-differentiated to macrophage-like cells
Reagents: siRNA pool against human genes, 50 nM
Duration: LPS for 4 h, given about 3 days after siRNA transfection
Conditions: bacterial LPS (TLR4 ligand), 10 ng/ml
Measured: 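Ratio of firefly to renilla light, scaled to the plate median and expressed as a robust z-score per replicate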
Reading the numbers: TNF reporter robust z-score: higher = stronger TNF reporter response to LPS
Hit rule: 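Each well counts as active if its z-score is over 2.8 or under -1.5; controls are left without a call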
The deposit covers about 18,000 reagents; below is an unselected part. In the full data, about 2,900 (16%) were called active. 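Calls are made per well; low scores hint the gene aids the LPS response, high scores that it dampens it.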 A number with no mark means an inactive call. Repeated entries: four replicate wells of each siRNA pool.

no.	gene	TNF reporter robust z-score
1	OR2L8 (olfactory receptor family 2 subfamily L member 8)	-0.39
2	OR2L8 (olfactory receptor family 2 subfamily L member 8)	-1.03
3	OR2L8 (olfactory receptor family 2 subfamily L member 8)	-0.75
4	OR2L8 (olfactory receptor family 2 subfamily L member 8)	-0.14
5	GYPB (glycophorin B (MNS blood group))	1.05
6	GYPB (glycophorin B (MNS blood group))	0.8
7	GYPB (glycophorin B (MNS blood group))	0.58
8	GYPB (glycophorin B (MNS blood group))	0.48
9	HBB (hemoglobin subunit beta)	-1
10	HBB (hemoglobin subunit beta)	-0.85
11	HBB (hemoglobin subunit beta)	-1.08
12	HBB (hemoglobin subunit beta)	-0.63
13	SPG7 (SPG7 matrix AAA peptidase subunit, paraplegin)	0.48
14	SPG7 (SPG7 matrix AAA peptidase subunit, paraplegin)	-0.22
15	SPG7 (SPG7 matrix AAA peptidase subunit, paraplegin)	0.29
16	SPG7 (SPG7 matrix AAA peptidase subunit, paraplegin)	-0.42
17	BTN2A3P (butyrophilin subfamily 2 member A3, pseudogene)	-1.84 (active)
18	BTN2A3P (butyrophilin subfamily 2 member A3, pseudogene)	-1.33
19	BTN2A3P (butyrophilin subfamily 2 member A3, pseudogene)	-1.62 (active)
20	BTN2A3P (butyrophilin subfamily 2 member A3, pseudogene)	-0.74
21	PLP2 (proteolipid protein 2)	0.19
22	PLP2 (proteolipid protein 2)	0.35
23	PLP2 (proteolipid protein 2)	1.04
24	PLP2 (proteolipid protein 2)	0.06
25	OSBPL11 (oxysterol binding protein like 11)	1.14
26	OSBPL11 (oxysterol binding protein like 11)	1.1
27	OSBPL11 (oxysterol binding protein like 11)	0.7
28	OSBPL11 (oxysterol binding protein like 11)	1.34
29	ZP1 (zona pellucida glycoprotein 1)	0.64
30	ZP1 (zona pellucida glycoprotein 1)	4 (active)
31	ZP1 (zona pellucida glycoprotein 1)	0.88
32	ZP1 (zona pellucida glycoprotein 1)	2.22
33	NXT2 (nuclear transport factor 2 like export factor 2)	0.13
34	NXT2 (nuclear transport factor 2 like export factor 2)	1.26
35	NXT2 (nuclear transport factor 2 like export factor 2)	-0.24
36	NXT2 (nuclear transport factor 2 like export factor 2)	-1.06
37	LLGL2 (LLGL scribble cell polarity complex component 2)	-0.63
38	LLGL2 (LLGL scribble cell polarity complex component 2)	0.38
39	LLGL2 (LLGL scribble cell polarity complex component 2)	0.89
40	LLGL2 (LLGL scribble cell polarity complex component 2)	0.26
41	TRPC4AP	1.61
42	TRPC4AP	0.83
43	TRPC4AP	1.2
44	TRPC4AP	0.67

Hits (from the list above):
gene	TNF reporter robust z-score
BTN2A3P (butyrophilin subfamily 2 member A3, pseudogene)	-1.84 (active)
BTN2A3P (butyrophilin subfamily 2 member A3, pseudogene)	-1.62 (active)
ZP1 (zona pellucida glycoprotein 1)	4 (active)

The listing continues.
no.	gene	TNF reporter robust z-score
45	NLGN3 (neuroligin 3)	-0.18
46	NLGN3 (neuroligin 3)	2.32
47	NLGN3 (neuroligin 3)	0.2
48	NLGN3 (neuroligin 3)	0.54
49	TAS1R2 (taste 1 receptor member 2)	-1.33
50	TAS1R2 (taste 1 receptor member 2)	-2.1 (active)
51	TAS1R2 (taste 1 receptor member 2)	-1.89 (active)
52	TAS1R2 (taste 1 receptor member 2)	-1.76 (active)
53	RPL29 (ribosomal protein L29)	1.02
54	RPL29 (ribosomal protein L29)	1.62
55	RPL29 (ribosomal protein L29)	1.36
56	RPL29 (ribosomal protein L29)	2.26
57	RNF138 (ring finger protein 138)	-0.45
58	RNF138 (ring finger protein 138)	-0.57
59	RNF138 (ring finger protein 138)	-0.21
60	RNF138 (ring finger protein 138)	-0.28
61	BMERB1 (bMERB domain containing 1)	-1.36
62	BMERB1 (bMERB domain containing 1)	-0.55
63	BMERB1 (bMERB domain containing 1)	-1.02
64	BMERB1 (bMERB domain containing 1)	-0.16
65	SPRR2F (small proline rich protein 2F)	-1
66	SPRR2F (small proline rich protein 2F)	-1.62 (active)
67	SPRR2F (small proline rich protein 2F)	-1.37
68	SPRR2F (small proline rich protein 2F)	-0.92
69	MIER1 (MIER1 transcriptional regulator)	-1.08
70	MIER1 (MIER1 transcriptional regulator)	-0.7
71	MIER1 (MIER1 transcriptional regulator)	-1.68 (active)
72	MIER1 (MIER1 transcriptional regulator)	-1.1
73	NLRP11 (NLR family pyrin domain containing 11)	0.6
74	NLRP11 (NLR family pyrin domain containing 11)	1.68
75	NLRP11 (NLR family pyrin domain containing 11)	0.92
76	NLRP11 (NLR family pyrin domain containing 11)	1.52
77	SEMA4B (semaphorin 4B)	-0.16
78	SEMA4B (semaphorin 4B)	0.91
79	SEMA4B (semaphorin 4B)	0.39
80	SEMA4B (semaphorin 4B)	-0.53
81	ENOX1 (ecto-NOX disulfide-thiol exchanger 1)	-0.37
82	ENOX1 (ecto-NOX disulfide-thiol exchanger 1)	1.38
83	ENOX1 (ecto-NOX disulfide-thiol exchanger 1)	-0.8
84	ENOX1 (ecto-NOX disulfide-thiol exchanger 1)	-0.74
85	H4C14 (H4 clustered histone 14)	3.6 (active)
86	H4C14 (H4 clustered histone 14)	5.55 (active)
87	H4C14 (H4 clustered histone 14)	0.1
88	H4C14 (H4 clustered histone 14)	0.58
89	LIN9 (lin-9 DREAM MuvB core complex component)	-1.93 (active)
90	LIN9 (lin-9 DREAM MuvB core complex component)	-2.1 (active)
91	LIN9 (lin-9 DREAM MuvB core complex component)	-2.21 (active)
92	AKAP13 (A-kinase anchoring protein 13)	0.06
93	AKAP13 (A-kinase anchoring protein 13)	-0.29
94	AKAP13 (A-kinase anchoring protein 13)	-0.44
95	AKAP13 (A-kinase anchoring protein 13)	0.49
96	DAAM2 (dishevelled associated activator of morphogenesis 2)	-0.98
97	DAAM2 (dishevelled associated activator of morphogenesis 2)	0.07
98	DAAM2 (dishevelled associated activator of morphogenesis 2)	1.72
99	DAAM2 (dishevelled associated activator of morphogenesis 2)	1.18
100	ANKHD1 (ankyrin repeat and KH domain containing 1)	1.89
101	ANKHD1 (ankyrin repeat and KH domain containing 1)	1.63
102	ANKHD1 (ankyrin repeat and KH domain containing 1)	0.52
103	ANKHD1 (ankyrin repeat and KH domain containing 1)	1.37
104	NFE2L1 (NFE2 like bZIP transcription factor 1)	-0.58
105	NFE2L1 (NFE2 like bZIP transcription factor 1)	-0.55
106	NFE2L1 (NFE2 like bZIP transcription factor 1)	-0.21
107	NFE2L1 (NFE2 like bZIP transcription factor 1)	0.26
108	CCND2 (cyclin D2)	-1.36
109	CCND2 (cyclin D2)	-0.86
110	CCND2 (cyclin D2)	-1.29
111	CCND2 (cyclin D2)	-0.68
